Experimental data published in patent publication US5208227A, “Method, compositions, and compounds for modulating brain excitability” (priority 1991, dated 1993).
“Also recorded” adds a separate entry of the source.

System: GBR complex ([35S]TBPS site)
Test: dissociation kinetics of [35S]TBPS in cortical P2 homogenates
Format: binding, rat
Procedure: An assay was performed to determine the effect of pentobarbital on the dissociation kinetics of [^35 S]TBPS in rat cerebral cortical membranes. This assay was performed in accordance with the procedures outlined above. […] Dissociation of bound [^35 S]TBPS was initiated by 2 micromolar TBPS in all cases.

CC(=O)[C@H]1CC[C@H]2[C@@H]3CC[C@H]4C[C@H](O)CC[C@]4(C)[C@H]3C(=O)C[C@]12C [5α-PREGNAN-3α-OL- 11,20-DIONE]
Total percentage of specific sites, rapidly dissociating (R) ((**P < 0.01 vs control), alphaxalone 300 nM, 3a-OH-DHP 20 nM): 34 ± 5 percentage
Total percentage of specific sites, slowly dissociating (S) ((*P < 0.05 vs control), alphaxalone 300 nM, 3a-OH-DHP 20 nM): 73 ± 4 percentage
k-1, rapidly dissociating component (R) ([35S]TBPS dissociation, alphaxalone 300 nM, 3a-OH-DHP 20 nM): 0.180 min⁻¹
k-1, slowly dissociating component (S) ([35S]TBPS dissociation, pentobarbital 30 nM [sic], alphaxalone 300 nM, 3a-OH-DHP 20 nM): 0.0120 min⁻¹
effect on dissociation mechanism/kinetics of [35S]TBPS (in words) (pentobarbital 30 micromolar, alphaxalone 300 nanomolar, 5-alpha-pregnan-3-alpha-hydroxy-20-one 20 nanomolar): absent; also recorded: do not influence the dissociation kinetics
